The text below walks through data of US20040018253A1, “Use of CYP2D6 inhibitors in combination therapies” (priority 1999, published 2004).

The data set in a line: Human pharmacokinetics of CYP2D6 substrates (half-life, oral bioavailability, hepatic extraction).

A number of entries come with more than one value. The other results are left out here. An entry can have further records. Results that share an entry differ, and nothing given here explains why; some may be repeats, others may stem from another dose, organism or construct than stated.

In the case of `O=C1CCC(=O)N1C[C@H]1CC[C@H]2CN(c3ncccn3)CCN2C1` [sunipetron, (7S,9S)-2-(2-pyrimidyl)-7-(succinamidomethyl)-prehydro-1H-pyrido-[1,2-a]pyrazine], the human half-life result was “about 1 hours and 1.1 hours”.
